US20210299039A1, “COMPOSITIONS AND METHODS FOR TREATING OCULAR DISEASE BY CONTACT LENS MEDIATED DRUG DELIVERY” (EyeGate Pharmaceuticals, Inc., priority 2020, published 2021)

Legend:
[1] = New Zealand White, rabbit, in vivo
[2] = 40, 20, 10, 5 mg/mL loading solution, Formulation 3

**Q.** What does the source list for C[C@@H]1C[C@H]2[C@@H]3CCC4=CC(=O)C=C[C@]4(C)[C@@]3(F)[C@@H](O)C[C@]2(C)[C@@]1(O)C(=O)COP(=O)(O)O [dexP, dexamethasone phosphate]?
**A.** time course of drug concentrations in tissues [1]: highest at the 2-hr timepoint and decreased over time; amount loaded into CL material vs concentration of dexP in loading solution ([2]; FIG. 14): linear relationship; amount released vs concentration of dexP in loading solution ([2]; release over 8 hours, FIG. 15): linear relationship
